Some compounds share one wording; it may come from a single statement.
Assay: Deliverability to liposomes from a solution in DMSO
Conditions: to liposomes from a solution in DMSO versus pre-incorporation, 1:1000, F/F0 after 600 s

Structure (SMILES)	Deliverability
CCCOc1c2cccc1Cc1cccc(c1OCc1nccn1C)Cc1cccc(c1OCCC)Cc1cccc(c1OCc1nccn1C)C2 [(2)]	Yes (means that a significant decrease of the fluorescence of encapsulated BCS was observed upon addition of Cu^+ to the liposomes when the calix[4]arene was added to the liposomes from a solution in DMSO (F/F0<0.65 after 600 s))
C=CCOc1c2cccc1Cc1cccc(c1OCc1nccn1C)Cc1cccc(c1OCC=C)Cc1cccc(c1OCc1nccn1C)C2 [(3)]	Yes (means that a significant decrease of the fluorescence of encapsulated BCS was observed upon addition of Cu^+ to the liposomes when the calix[4]arene was added to the liposomes from a solution in DMSO (F/F0<0.65 after 600 s))
CCOC(=O)COc1c2cccc1Cc1cccc(c1OCc1nccn1C)Cc1cccc(c1OCC(=O)OCC)Cc1cccc(c1OCc1nccn1C)C2 [(4)]	Yes (means that a significant decrease of the fluorescence of encapsulated BCS was observed upon addition of Cu^+ to the liposomes when the calix[4]arene was added to the liposomes from a solution in DMSO (F/F0<0.65 after 600 s))
COc1c2cccc1Cc1cccc(c1OCc1nccn1C)Cc1cccc(c1OC)Cc1cccc(c1OCc1nccn1C)C2 [(5)]	Yes (means that a significant decrease of the fluorescence of encapsulated BCS was observed upon addition of Cu^+ to the liposomes when the calix[4]arene was added to the liposomes from a solution in DMSO (F/F0<0.65 after 600 s))
Cn1ccnc1COc1c2cccc1Cc1cccc(c1O)Cc1cccc(c1OCc1nccn1C)Cc1cccc(c1O)C2 [(6)]	Yes (means that a significant decrease of the fluorescence of encapsulated BCS was observed upon addition of Cu^+ to the liposomes when the calix[4]arene was added to the liposomes from a solution in DMSO (F/F0<0.65 after 600 s))
CCCOc1c2cc([N+](=O)[O-])cc1Cc1cccc(c1OCc1nccn1C)Cc1cc([N+](=O)[O-])cc(c1OCCC)Cc1cccc(c1OCc1nccn1C)C2 [(7)]	Yes (means that a significant decrease of the fluorescence of encapsulated BCS was observed upon addition of Cu^+ to the liposomes when the calix[4]arene was added to the liposomes from a solution in DMSO (F/F0<0.65 after 600 s))
CCCOc1c2cccc1Cc1cccc(c1OCc1nc3ccccc3n1C)Cc1cccc(c1OCCC)Cc1cccc(c1OCc1nc3ccccc3n1C)C2 [(8)]	Yes (means that a significant decrease of the fluorescence of encapsulated BCS was observed upon addition of Cu^+ to the liposomes when the calix[4]arene was added to the liposomes from a solution in DMSO (F/F0<0.65 after 600 s))
CCCOc1c2cccc1Cc1cccc(c1OCc1ncco1)Cc1cccc(c1OCCC)Cc1cccc(c1OCc1ncco1)C2 [(9)]	Medium (means that the final level reached was much lower upon pre-incorporation (F/F0<0.4 after 600 s) than when adding the calix[4]arene to the liposomes from a solution in DMSO (F/F0=0.4-0.65 after 600 s))
CCCOc1c2cccc1Cc1cccc(c1OCc1nccs1)Cc1cccc(c1OCCC)Cc1cccc(c1OCc1nccs1)C2 [(10)]	Medium (means that the final level reached was much lower upon pre-incorporation (F/F0<0.4 after 600 s) than when adding the calix[4]arene to the liposomes from a solution in DMSO (F/F0=0.4-0.65 after 600 s))
CCCOc1c2cccc1Cc1cccc(c1OCc1ccccn1)Cc1cccc(c1OCCC)Cc1cccc(c1OCc1ccccn1)C2 [(38)]	Yes (means that a significant decrease of the fluorescence of encapsulated BCS was observed upon addition of Cu^+ to the liposomes when the calix[4]arene was added to the liposomes from a solution in DMSO (F/F0<0.65 after 600 s))
